Measurements published in the supplement of paper PMC8728848.
The other results are listed elsewhere or left out.

Key:
Experiment in all cases: glycan array binding signal (z-score within array); higher = stronger binding
Details in all cases: glycan notation: IUPAC condensed, linker removed
[1] = target: Fuc(a1-2)Gal(b1-4)GlcNAc(b1-3)Gal(b1-4)GlcNAc(b1-3)Gal(b1-4)GlcNAc
Summary of the method: (§1)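 The Consortium for Functional Glycomics database supplied 3228 glycan arrays, of which those lacking an available protein sequence were dropped. The binding signal, a within-array Z-score, was averaged across arrays of the same protein sequence and across linkers. Negative scores can be read as non-binding.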

[2] = target: Fuc(a1-2)Gal(b1-4)GlcNAc(b1-3)GalNAc
Summary of the method: as §1

[3] = target: Fuc(a1-2)Gal(b1-4)GlcNAc(b1-3)[Fuc(a1-2)Gal(b1-4)GlcNAc(b1-6)]GalNAc
Summary of the method: as §1

[4] = target: Fuc(a1-2)Gal(b1-4)GlcNAc(b1-3)[Fuc(a1-3)[Gal(b1-4)]GlcNAc(b1-6)]Gal(b1-4)Glc
Summary of the method: as §1

[5] = target: Fuc(a1-2)Gal(b1-4)GlcNAc(b1-6)GalNAc
Summary of the method: as §1

[6] = target: Fuc(a1-2)Gal(b1-4)GlcNAc6S
Summary of the method: as §1

[7] = target: Fuc(a1-2)Gal(b1-4)[Fuc(a1-3)]GlcNAc
Summary of the method: as §1

[8] = target: Fuc(a1-2)Gal(b1-4)[Fuc(a1-3)]GlcNAc(b1-2)Man(a1-3)[Fuc(a1-2)Gal(b1-4)[Fuc(a1-3)]GlcNAc(b1-2)Man(a1-6)]Man(b1-4)GlcNAc(b1-4)[Fuc(a1-6)]GlcNAc
Summary of the method: as §1

[9] = target: Fuc(a1-2)Gal(b1-4)[Fuc(a1-3)]GlcNAc(b1-2)[Fuc(a1-2)Gal(b1-4)[Fuc(a1-3)]GlcNAc(b1-4)]Man(a1-3)[Fuc(a1-2)Gal(b1-4)[Fuc(a1-3)]GlcNAc(b1-2)Man(a1-6)]Man(b1-4)GlcNAc(b1-4)GlcNAc
Summary of the method: as §1

[10] = target: Fuc(a1-2)Gal(b1-4)[Fuc(a1-3)]GlcNAc(b1-3)Gal(b1-4)[Fuc(a1-3)]GlcNAc
Summary of the method: as §1

[11] = target: Fuc(a1-2)Gal(b1-4)[Fuc(a1-3)]GlcNAc(b1-3)Gal(b1-4)[Fuc(a1-3)]GlcNAc(b1-3)Gal(b1-4)[Fuc(a1-3)]GlcNAc
Summary of the method: as §1

[12] = target: Fuc(a1-2)Gal(b1-4)[Fuc(a1-3)]GlcNAc(b1-3)GalNAc
Summary of the method: as §1

[13] = target: Fuc(a1-2)Gal(b1-4)[Fuc(a1-3)]GlcNAc(b1-3)[Neu5Ac(a2-6)Gal(b1-4)GlcNAc(b1-6)]Gal(b1-4)Glc
Summary of the method: as §1

[14] = target: Fuc(a1-2)Gal3S(b1-4)GlcNAc
Summary of the method: as §1

[15] = target: Fuc(a1-2)Gal6S(b1-3)GlcNAc
Summary of the method: as §1

[16] = target: Fuc(a1-2)Gal6S(b1-3)GlcNAc6S
Summary of the method: as §1

Fuc(a1-2)Gal6S(b1-4)Glc = target: Fuc(a1-2)Gal6S(b1-4)Glc
Summary of the method: as §1

[17] = target: Fuc(a1-2)Gal6S(b1-4)Glc6S
Summary of the method: as §1

Fuc(a1-2)[Gal(a1-3)]Gal = target: Fuc(a1-2)[Gal(a1-3)]Gal
Summary of the method: as §1

[18] = target: Fuc(a1-2)[Gal(a1-3)]Gal(b1-3)GalNAc
Summary of the method: as §1

[19] = target: Fuc(a1-2)[Gal(a1-3)]Gal(b1-3)GalNAc(b1-3)Gal(a1-4)Gal(b1-4)Glc
Summary of the method: as §1

[20] = target: Fuc(a1-2)[Gal(a1-3)]Gal(b1-3)GlcNAc
Summary of the method: as §1

[21] = target: Fuc(a1-2)[Gal(a1-3)]Gal(b1-3)GlcNAc(b1-2)Man(a1-3)[Fuc(a1-2)[Gal(a1-3)]Gal(b1-3)GlcNAc(b1-2)Man(a1-6)]Man(b1-4)GlcNAc(b1-4)GlcNAc
Summary of the method: as §1

[22] = target: Fuc(a1-2)[Gal(a1-3)]Gal(b1-3)GlcNAc(b1-2)Man(a1-3)[Fuc(a1-2)[Gal(a1-3)]Gal(b1-3)GlcNAc(b1-2)Man(a1-6)]Man(b1-4)GlcNAc(b1-4)[Fuc(a1-6)]GlcNAc
Summary of the method: as §1

[23] = target: Fuc(a1-2)[Gal(a1-3)]Gal(b1-3)GlcNAc(b1-3)GalNAc
Summary of the method: as §1

[24] = target: Fuc(a1-2)[Gal(a1-3)]Gal(b1-3)GlcNAc(b1-6)GalNAc
Summary of the method: as §1

[25] = target: Fuc(a1-2)[Gal(a1-3)]Gal(b1-4)Glc
Summary of the method: as §1

[26] = target: Fuc(a1-2)[Gal(a1-3)]Gal(b1-4)GlcNAc
Summary of the method: as §1

[27] = target: Fuc(a1-2)[Gal(a1-3)]Gal(b1-4)GlcNAc(b1-2)Man
Summary of the method: as §1

[28] = target: Fuc(a1-2)[Gal(a1-3)]Gal(b1-4)GlcNAc(b1-2)Man(a1-3)[Fuc(a1-2)[Gal(a1-3)]Gal(b1-4)GlcNAc(b1-2)Man(a1-6)]Man(b1-4)GlcNAc(b1-4)GlcNAc
Summary of the method: as §1

[29] = target: Fuc(a1-2)[Gal(a1-3)]Gal(b1-4)GlcNAc(b1-2)Man(a1-3)[Fuc(a1-2)[Gal(a1-3)]Gal(b1-4)GlcNAc(b1-2)Man(a1-6)]Man(b1-4)GlcNAc(b1-4)[Fuc(a1-6)]GlcNAc
Summary of the method: as §1

[30] = target: Fuc(a1-2)[Gal(a1-3)]Gal(b1-4)GlcNAc(b1-3)GalNAc
Summary of the method: as §1

[31] = target: Fuc(a1-2)[Gal(a1-3)]Gal(b1-4)GlcNAc(b1-3)[Fuc(a1-2)[Gal(a1-3)]Gal(b1-4)GlcNAc(b1-6)]GalNAc
Summary of the method: as §1

[32] = target: Fuc(a1-2)[Gal(a1-3)]Gal(b1-4)GlcNAc(b1-6)GalNAc
Summary of the method: as §1

[33] = target: Fuc(a1-2)[Gal(a1-3)]Gal(b1-4)[Fuc(a1-3)]Glc
Summary of the method: as §1

[34] = target: Fuc(a1-2)[Gal(a1-3)]Gal(b1-4)[Fuc(a1-3)]GlcNAc
Summary of the method: as §1

[35] = target: Fuc(a1-2)[Gal(a1-3)]Gal(b1-4)[Fuc(a1-3)]GlcNAc(b1-3)GalNAc
Summary of the method: as §1

B1: LF82 (Escherichia coli) (protein)
chain: ADWGPCRTASGDPFIFVTSFTKNIQNPTDNVTGQTYPDFYQWALGDKYSGVCECPSPNPTEARPTLYKTESTLAAGHNSTYFKITNNLEVSTRVYIANVGNVQVPFINKSNSQPGRECDQPTFGWTTGSKGQLSLYIAKPFVGEQNIPQTIIVSVFGTKKENVYSSVPISQVLLSGKVTVTQGCELAAGTSLDIDFGEYQAHDFKGRTGQPPQNVQKIQKELTFNCTNISDGVHIYLSLEGTPNAAYPSAISLGNADVGAVIEDGKGNILKPNDSNSLLEMNPGSLYEYVKRKVTTTITAYPVSTTGKLPAAGDYSGVATMHVELDGGGGGGGGGGATTDLGAKGTLKFSLKISQGHHHHHH
[1]
  glycan array binding signal (z-score): -0.19
[2]
  glycan array binding signal (z-score): 1.85
[3]
  glycan array binding signal (z-score): -0.393
[4]
  glycan array binding signal (z-score): -1.07
[5]
  glycan array binding signal (z-score): -0.243
[6]
  glycan array binding signal (z-score): -0.741
[7]
  glycan array binding signal (z-score): -0.733
[8]
  glycan array binding signal (z-score): 1.22
[9]
  glycan array binding signal (z-score): 0.094
[10]
  glycan array binding signal (z-score): -1.73
[11]
  glycan array binding signal (z-score): 0.016
[12]
  glycan array binding signal (z-score): -0.268
[13]
  glycan array binding signal (z-score): -0.342
[14]
  glycan array binding signal (z-score): -0.467
[15]
  glycan array binding signal (z-score): 0.113
[16]
  glycan array binding signal (z-score): -0.122
Fuc(a1-2)Gal6S(b1-4)Glc
  glycan array binding signal (z-score): -2.14
[17]
  glycan array binding signal (z-score): -0.548
Fuc(a1-2)[Gal(a1-3)]Gal
  glycan array binding signal (z-score): -0.386
[18]
  glycan array binding signal (z-score): -0.228
[19]
  glycan array binding signal (z-score): -0.93
[20]
  glycan array binding signal (z-score): -0.338
[21]
  glycan array binding signal (z-score): -0.09
[22]
  glycan array binding signal (z-score): 3.84
[23]
  glycan array binding signal (z-score): -1.86
[24]
  glycan array binding signal (z-score): -0.795
[25]
  glycan array binding signal (z-score): -0.473
[26]
  glycan array binding signal (z-score): -0.268
[27]
  glycan array binding signal (z-score): -0.821
[28]
  glycan array binding signal (z-score): 0.087
[29]
  glycan array binding signal (z-score): -0.505
[30]
  glycan array binding signal (z-score): -0.393
[31]
  glycan array binding signal (z-score): -0.196
[32]
  glycan array binding signal (z-score): 0.16
[33]
  glycan array binding signal (z-score): -0.693
[34]
  glycan array binding signal (z-score): 0.185
[35]
  glycan array binding signal (z-score): -0.354
